Data on 107 sequences can be found in PubChem BioAssay AID1508600 (Functional Genomics Laboratory (NCATS/FGL), 2020).

About 3,700 (7%) of roughly 53,000 sequences were called active.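 How the source made its calls: active means gene knockdowns whose robust z-score for IL-1 alpha signal is at least 2 or at most -2, so actives lie on both sides; inactive means the rest.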 Some of the results follow.

This experiment in a line: Components of the Cytosolic LPS Sensing Pathway: Gene Identification via Genome-wide siRNA Screen.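 Further: robust z of the log signal after scaling to non-targeting control siRNA wells of the plate.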 As to conditions: RAW264.7 macrophages, IL-1a HTRF, actives lie on both sides, screened at 100 nM (by protocol), cells primed 5 h with Pam3CSK4 first. Put shortly: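 Three distinct siRNAs per gene were tested singly at 100 nM in RAW264.7 macrophages. Following Pam3CSK4 priming and 24 hour LipidA transfection, IL-1a secretion was read by HTRF.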
On the technique in general: TR-FRET usually uses a lanthanide donor and a delayed reading to cut background.
Regarding GGGAAAUGGAGGAUAAUUATT against Zmat1, the z-score is inactive: -0.172.
Then GGCUAUGGAACAAAGUACUTT against Sostdc1, with inactive: 0.838.
As to GGUUGAUGCUGCUAUUGGGTT against Thap1, the z-score was inactive: -1.22.
Then GGAAGAGAAAGAAGAGUAATT against Tub, with inactive: -1.76; and GUCUUCUAACCAGGUAAAGTT against Tgoln2, with inactive: 0.0459.
GGAGAAAAACAAAAACCAATT against Flii: the z-score is inactive: 0.283.
With GGCUGUUUGAGAUAUUAAUTT against Def6 the figure was inactive: 0.219; with GGUGACUGAGAAAAAUGUUTT against Gfra3, inactive: -0.326; with GGUUCCUAAGGAUGAACUUTT against Akr1c14, inactive: -0.186.
Take GGUCAUGGUCUGAGAUUCUTT against Txnl4a: the z-score was active: -2.34.
In the case of GGUUUAAUGAGCAUCCCUUTT against Foxj3, the z-score is inactive: -0.299.
Then GGAAGGUAAUAUUACAAGCTT against Ccdc68, with inactive: 0.44.
Then GGAAGGUGAUGAAUCAGCCTT against Wwtr1, with active: -2.74.
Regarding GCUGUUACCUUGACGAAUATT against Tsc2, the z-score was inactive: 1.32.
With GGGUUUGACUUUUUGAGGGTT against Fbxo30 the figure was inactive: 0.383; with GGAAAUGUUUAUCACGGUUTT against Scube2, active: 2.05.
Consider CGAGAAUGUAGAAAGUGGGTT against Mindy4, for which the z-score is inactive: -0.781.
In the case of GGAAAUAAACCACCUCUUCTT against Olfr437, the z-score was active: 2.36.
With GCUUUUCAUAUCUCUUGCATT against Olfr1385, the z-score is inactive: 0.408.
GGUACCAGGAUACGAAUAUTT against Pde10a: the z-score was inactive: 0.817.
As to “GGCUCUUAUUGAUAAAAGCTT against 2310057M21Rik”, the z-score is inactive: -0.467.
GGUGACUUGGAAGAGCCCATT against Il1rapl2: the z-score was inactive: -0.637.
Regarding CCUUCAUCGUACAUACCAUTT against Actn1, the z-score was inactive: 1.02.
For GGAAGACAAAAUGUUCUAATT against Las1l, the z-score is inactive: 1.37.
Then GGUGAUGAGCAACUUGGACTT against S100a4, with inactive: 1.23.
With GGACAACAGUGUAAAAAUCTT against Armc12 the figure was inactive: -0.318.
On to UUCUAAUCACAAAGGUUGATT against Olfr1113, for which the z-score is inactive: -0.368.
With GGUGAUUUCCAUCUACAACTT against Tgfb2 the figure was inactive: 0.757; with GGGAAUAUUCAGUUGACAATT against Iigp1, inactive: -1.14; with GGAAACACCAGGUUUAUAUTT against Ttc27, inactive: -1.74.
Take GGUUUAACAAGGAAUUAGGTT against Gngt1: the z-score was inactive: -0.832.
Turning to GGAAUGGUACUAUCAAAUATT against Bace2, the z-score was inactive: 1.91.
Turning to GGCAUCAGAGCAUCUGUGCTT against Ankrd16, the z-score is inactive: 0.488.
In the case of GGAGUUAAAGAGCUUAGGCTT against Cstf2t, the z-score was inactive: -0.237.
With CCUACUUCCCGUCAUUCCUTT against Tmem214 the figure was inactive: 0.367.
With CGUGAAAGGCACAAAAAAGTT against Gipc2 the figure was inactive: -0.341; with GGGAUAUUGAGUUAGCCUGTT against Bet1, inactive: 0.437; with GGUUAUUGAGGAGUUCUACTT against Slc2a1, inactive: 0.44.
With CGUGGCAAGAUGACUAUACTT against Ptprn2, the z-score was inactive: -0.609.
In the case of GCCUAUUGUCAGAAAAGUUTT against Usp4, the z-score was inactive: -0.385.
Then GGAUCUAUUCACUUCGGAUTT against Clec2d, with inactive: 1.02; and CCCACAGCUCUGACAUUUUTT against Fbxo6, with inactive: -0.315.
Take GCACGAGACACUUUUCAUUTT against Dnajb5: the z-score was inactive: -0.0852.
Regarding GGUUGUGUGUUAUUUAUAGTT against Irak2, the z-score is inactive: -1.94.
Regarding GCUUCGAGUCAUAGGUUUATT against Btnl1, the z-score was inactive: 1.85.
Consider GGUGUGGUGUGAGAUCUAUTT against Adra2a, for which the z-score was inactive: 1.08.
In the case of GGGACAGUGUUUAUGACCCTT against Car5b, the z-score was inactive: -1.1.
For the sequence GGGUCUUGAGAAUCUUAUGTT against Zfp454, the z-score is inactive: -0.614.
Take GGUCCAGAGGAUGAACAGATT against Crcp: the z-score is inactive: 0.551.
As for GGAUGAAGAAGAGAUCAACTT against Tubb6, the z-score is inactive: 0.986.
In the case of GGUGAAAGUACUGAGGAAGTT against Rlim, the z-score is active: 2.45.
Turning to GGAAGCUGAACGAAAAUAATT against Cript, the z-score is inactive: 0.196.
In the case of GCCUCUAUUCUACACCACATT against Gpr137, the z-score is active: -2.1.
With GGGAAAUAAUGAUUGGUCUTT against Mier3, the z-score was inactive: 0.605.
For GGACACAAUUAUGAGAACATT against Cwh43, the z-score is inactive: 0.0205.
As to GGAGAUCGAGUUCAACAUUTT against Olfr557, the z-score was inactive: 1.77.
GGUGAAUUCAACUCUCUAATT against Decr1: the z-score was active: 2.43.
In the case of GGUUUUUCUCACUUUUGUATT against Siah1a, the z-score was inactive: 0.374.
Then GGAGAAUUGCUUGAAUACUTT against Supt20, with inactive: 0.419; and GCACACGAUUCCUCAUGGATT against Pigw, with inactive: -0.346; and GCAACUCAAUCUGGUCACUTT against Psme1, with inactive: -0.292.
As to GGUGAUUCACAUAACAGGCTT against Npas3, the z-score is active: 2.05.
Turning to GGAGUUGUAAAGUUUGGCUTT against Slc12a2, the z-score was inactive: -0.758.
With GCCUACAUUCACUCACUCCTT against Olfr1061 the figure was inactive: -0.016; with GGGAGUUCAACUUGAUGUATT against Irf6, inactive: -1.45; with CCCACUGGUUUGUUUAAACTT against Hbegf, inactive: 0.555.
GGUACACCACAAUCCUCACTT against Olfr676: the z-score is inactive: -0.482.
GCCAAGGUAGAAUCUUGCCTT against Gsdmd: the z-score was inactive: -0.197.
Consider GCACGUUCUUUCAAGAAAGTT against Ubald2, for which the z-score is inactive: -0.625.
CCGAAAGAACACAAUCUAUTT against Ifi204: the z-score is inactive: 1.16.
For the sequence GGAGCUUAGUCUAAUUGAATT against Ms4a6c, the z-score was inactive: 0.677.
Consider GCUGGAUUACAUCACAUACTT against Sf3a3, for which the z-score was inactive: -0.366.
Then CGAGAGCAUUAAUUACUUCTT against Sulf1, with inactive: 0.621.
With GGUGGCCUUUCCUCGAAGATT against Msi1 the figure was inactive: 0.854; with GGUAACUGUGGACUUGCUUTT against Olfr1213, inactive: -1.64.
As to GGUGGACUACUCACGAUUCTT against Kcnj4, the z-score was inactive: 0.867.
As for GGAGGAGCCUGUUCCAGAATT against Bcl7c, the z-score is inactive: -0.0117.
In the case of GGUCUCCUAUCAGAAAGCCTT against Tor1a, the z-score was inactive: -1.37.
Then GGAGAAUUGCCCAUCUUUGTT against Slf1, with inactive: 1.24; and GCCACGACCAUUCAGACUCTT against Lrrc42, with inactive: 1.27; and ACAAAUAUUCCCUGGCCACTT against Slc39a13, with inactive: 0.45.
With UCCUCCUGUCUUACGUACGTT against Prlhr the figure was active: 2.05.
Turning to GCACAAAGACUUAAACAUCTT against Egfl6, the z-score was inactive: -0.104.
On to GGUAAUUGAGAAAUUUGAGTT against Mprip, for which the z-score is inactive: -0.824.
CCUGUAGGAUUGUUUUGAATT against Slc39a8: the z-score is inactive: -0.478.
As to GGAGACAUUCACUGUCUUCTT against Ephb4, the z-score was inactive: -0.322.
GGAGACAAGCUUCUUUGAUTT against Abcb9: the z-score was inactive: -1.65.
For the sequence GGAUGAAGAUGAAAAGGAATT against Ube3a, the z-score is inactive: -0.519.
Turning to GGCAAAAAGUAUGCCUUAGTT against Pi4k2b, the z-score was inactive: 0.544.
Regarding GGAGAAAGCUUGUGUGGUGTT against Prxl2b, the z-score was inactive: -0.446.
In the case of GGCUAAUGUAUCGUCUGAGTT against Asb16, the z-score is active: 3.06.
For GCAUUUAACAAAGAUUUGGTT against Rnpc3, the z-score is inactive: 0.248.
As for GGCUUGUGACUACGAAAUATT against Olfr1364, the z-score is inactive: -1.27.
For GGAAUUUGAUUCUCUGCCUTT against Zfp646, the z-score is active: 2.96.
Then CCGUGGAGUAACAAGUAUGTT against Capzb, with inactive: -1.07; and GGAAAAUCACAAUCACUUGTT against Ccdc43, with inactive: -0.669; and GGCUUUGUAGCCUAGCUAGTT against Cd81, with inactive: 0.775.
In the case of GGACAUGUACACCUUUGAUTT against Pars2, the z-score was inactive: -0.289.
As for GGUUACGGAUAUGGAUCUGTT against Krtap19-5, the z-score is inactive: 0.488.
For GGAAAGAUGAGACCACCCGTT against Stau1, the z-score was inactive: -0.582.
GGGAGUGGCUGAAAAGUGUTT against Colgalt2: the z-score was inactive: 0.995.
With GCUUACCUCCCAACUAUCATT against Dkk3, the z-score was inactive: 0.296.
As for CCCUGGUGACUACGAGAAUTT against Chrna4, the z-score was inactive: -0.462.
Turning to GCCUAGACCAGAGAAAGGUTT against Cep170b, the z-score is inactive: 1.66.
Consider GGAUGUCAAUAGCAUGUGGTT against Adgrg6, for which the z-score is inactive: 0.612.
Turning to GGCUCACAAUUGCUGUGUATT against Psg23, the z-score was inactive: -0.566.
Consider GCUAAUGGUCCAUUGAUAUTT against Btn2a2, for which the z-score is inactive: 0.229.
